# PubChem BioAssay AID1053208 – Peter MacCallum Cancer Centre, 2014
# Test: 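Find knock-downs that sensitise mouse osteosarcoma cells to doxorubicin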 (primary screen)
# Cells: mouse osteosarcoma cells, early-passage culture from an engineered mouse model of fibroblastic bone tumour
# Reagents: siRNA pool against mouse genes, 40 nM
# Duration: about 120 h (48 h before drug, then 72 h with drug)
# Conditions: doxorubicin 100 nM for 72 h, roughly 30-40% inhibitory dose
# Read-out: 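Luminescent ATP signal taken as viability with or without 100 nM doxorubicin for 72 h; mean of two wells set against non-targeting siRNA and turned into robust z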
# Scale: viability z-score with doxorubicin and doxorubicin viability vs non-targeting: higher = more viable cells under doxorubicin; viability z-score without drug: higher = more viable cells with knock-down alone; z-score of drug to no-drug ratio: higher = less drug sensitisation by knock-down
# Rule for the call: 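Called active if knock-down leaves viability unchanged without drug (z within -2 to 2) but lowers it with doxorubicin (z at or under -2)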
# The deposit covers about 17,000 reagents; shown is a random part of them. Over the whole deposit, 788 (4.7%) are marked active. 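Calls rest on z-score classes alone; an extra cut-off of viability at most 70% of control was not applied to them.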 Entries without a mark were called inactive. Reagent sequences are not shown.
Gene,combined z-score class,viability z-score with doxorubicin,viability z-score without drug,z-score of drug to no-drug ratio,doxorubicin viability vs non-targeting
"Pcdhgb8 (protocadherin gamma subfamily B, 8)",no change with or without drug,-0.45,0,-0.34,0.9
Cdk3 (cyclin dependent kinase 3),low cell count with doxorubicin only (active),-2.36,-1.18,-1.69,0.73
Mrpl37 (mitochondrial ribosomal protein L37),no change with or without drug,1.69,0.84,1.24,1.09
Plpp2 (phospholipid phosphatase 2),no change with or without drug,-0.45,0.34,-0.56,0.9
9130401M01Rik (RIKEN cDNA 9130401M01 gene),no change with or without drug,1.01,1.35,0.22,1.03
Map3k6 (mitogen-activated protein kinase kinase kinase 6),no change with or without drug,-0.22,0.51,-0.45,0.92
Carf (calcium response factor),no change with or without drug,0.9,1.52,0,1.02
Ctnnal1 (catenin alpha like 1),no change with or without drug,-0.22,-0.51,0.22,0.92
Atp5pd (ATP synthase peripheral stalk subunit d),no change with or without drug,-0.67,0.17,-0.67,0.88
Srsf7 (serine and arginine-rich splicing factor 7),no change with or without drug,0.67,-1.52,2.02,1
"Kcnj5 (potassium inwardly-rectifying channel, subfamily J, member 5)",low cell count with doxorubicin only (active),-2.02,-1.18,-1.35,0.76
Mrap (melanocortin 2 receptor accessory protein),no change with or without drug,-1.35,1.18,-2.02,0.82
Vars1 (valyl-tRNA synthetase 1),no change with or without drug,-0.9,-0.84,-0.22,0.86
"Sptlc2 (serine palmitoyltransferase, long chain base subunit 2)",no change with or without drug,-0.67,0,-0.56,0.88
Apex2 (apurinic/apyrimidinic endonuclease 2),no change with or without drug,-0.34,-0.51,0.11,0.91
"C1rl (complement component 1, r subcomponent-like)",high cell count with and without drug,2.25,2.53,0.67,1.14
Ifi202b (interferon activated gene 202B),no change with or without drug,-1.35,-0.34,-1.12,0.82
Zfp622 (zinc finger protein 622),no change with or without drug,1.35,0.17,1.35,1.06
Slc39a3,no change with or without drug,0,0.67,-0.34,0.94
Ch25h (cholesterol 25-hydroxylase),no change with or without drug,-1.24,-0.17,-1.12,0.83
Opn1mw,no change with or without drug,1.69,-0.51,2.25,1.09
Hoxc12 (homeobox C12),no change with or without drug,0.67,1.35,-0.11,1
Mtdh (metadherin),no change with or without drug,-1.01,-0.17,-0.9,0.85
Cdhr1 (cadherin-related family member 1),no change with or without drug,-1.57,-0.34,-1.35,0.8
Cadm1 (cell adhesion molecule 1),no change with or without drug,-0.67,0.51,-0.9,0.88
Lyve1 (lymphatic vessel endothelial hyaluronan receptor 1),no change with or without drug,0.56,-0.34,0.9,0.99
"Becn1 (beclin 1, autophagy related)",no change with or without drug,1.35,0.51,1.12,1.06
Prex1,no change with or without drug,-0.45,0.51,-0.67,0.9
Calm2 (calmodulin 2),no change with or without drug,-0.45,0.34,-0.56,0.9
"Tgfb2 (transforming growth factor, beta 2)",no change with or without drug,1.01,0.34,0.9,1.03
Rbx1 (ring-box 1),low cell count without drug only,-1.91,-2.87,0.11,0.77
Vsig8 (V-set and immunoglobulin domain containing 8),no change with or without drug,-1.35,0.34,-1.46,0.82
Gal3st2 (galactose-3-O-sulfotransferase 2),no change with or without drug,0.45,1.35,-0.34,0.98
Slc16a9,no change with or without drug,0.22,-0.84,1.01,0.96
